{"source": "PubChem BioAssay AID1224829 (NIAID, 2016)", "screen": "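Secondary check of hits that alter LPS-induced p65 translocation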 (follow-up of hits)", "system": "mouse RAW264.7 G9 macrophage reporter cells", "knock-down reagent": "single siRNA against mouse genes, 100 nM", "duration": "2 days of siRNA knock-down, then 40 min of LPS before fixing", "treatment": "LPS (Salmonella minnesota R595) at 10 ng/ml", "measurement": "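High-content images after 40 min LPS exposure; GFP-p65 nucleus to surrounding ring signal ratio, normalised to plate median and non-targeting control wells, expressed as z-score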", "scale": "p65 translocation z-score and gene median z-score, per vendor: higher = more nuclear NF-kappaB p65 after LPS", "hit rule": "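An siRNA is called active when the mean z-score of its two replicates is above 2 or below -2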", "meaning of the calls": "active = changed p65 translocation (either direction); inactive = no clear change", "note": "The deposit covers about 3,800 reagents; this is a random part of them. 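Calls cover raised and lowered translocation; gene median uses one vendor's three siRNAs; qiagen siRNAs acted more weakly than ambion siRNAs.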 Unmarked entries are inactive. Reagents against one gene are numbered here."}
{"target gene": "Pofut1 (protein O-fucosyltransferase 1)", "siRNA no.": 1, "siRNA vendor or control pool": "ambion single siRNA", "p65 translocation z-score, replicate mean": -0.69, "p65 translocation z-score, replicate 1": -0.751, "p65 translocation z-score, replicate 2": -0.628, "gene median z-score, per vendor": -3.49}
{"target gene": "Pofut1 (protein O-fucosyltransferase 1)", "siRNA no.": 2, "siRNA vendor or control pool": "ambion single siRNA", "p65 translocation z-score, replicate mean": "-4.51 (active)", "p65 translocation z-score, replicate 1": -5.79, "p65 translocation z-score, replicate 2": -3.23, "gene median z-score, per vendor": -3.49}
{"target gene": "Pofut1 (protein O-fucosyltransferase 1)", "siRNA no.": 3, "siRNA vendor or control pool": "ambion single siRNA", "p65 translocation z-score, replicate mean": "-5.12 (active)", "p65 translocation z-score, replicate 1": -6.48, "p65 translocation z-score, replicate 2": -3.75, "gene median z-score, per vendor": -3.49}
{"target gene": "Pofut1 (protein O-fucosyltransferase 1)", "siRNA no.": 4, "siRNA vendor or control pool": "qiagen single siRNA", "p65 translocation z-score, replicate mean": -0.875, "p65 translocation z-score, replicate 1": -0.741, "p65 translocation z-score, replicate 2": -1.01, "gene median z-score, per vendor": -2.8}
{"target gene": "Pofut1 (protein O-fucosyltransferase 1)", "siRNA no.": 5, "siRNA vendor or control pool": "qiagen single siRNA", "p65 translocation z-score, replicate mean": "-3.86 (active)", "p65 translocation z-score, replicate 1": -1.99, "p65 translocation z-score, replicate 2": -5.72, "gene median z-score, per vendor": -2.8}
{"target gene": "Pofut1 (protein O-fucosyltransferase 1)", "siRNA no.": 6, "siRNA vendor or control pool": "qiagen single siRNA", "p65 translocation z-score, replicate mean": "-5.31 (active)", "p65 translocation z-score, replicate 1": -3.61, "p65 translocation z-score, replicate 2": -7, "gene median z-score, per vendor": -2.8}
{"target gene": "Cox6b2 (cytochrome c oxidase subunit 6B2)", "siRNA no.": 1, "siRNA vendor or control pool": "ambion single siRNA", "p65 translocation z-score, replicate mean": "2.05 (active)", "p65 translocation z-score, replicate 1": 2.12, "p65 translocation z-score, replicate 2": 1.98, "gene median z-score, per vendor": -0.202}
{"target gene": "Cox6b2 (cytochrome c oxidase subunit 6B2)", "siRNA no.": 2, "siRNA vendor or control pool": "ambion single siRNA", "p65 translocation z-score, replicate mean": "-2.51 (active)", "p65 translocation z-score, replicate 1": -2.03, "p65 translocation z-score, replicate 2": -2.99, "gene median z-score, per vendor": -0.202}
{"target gene": "Cox6b2 (cytochrome c oxidase subunit 6B2)", "siRNA no.": 3, "siRNA vendor or control pool": "ambion single siRNA", "p65 translocation z-score, replicate mean": -0.725, "p65 translocation z-score, replicate 1": 1.63, "p65 translocation z-score, replicate 2": -3.08, "gene median z-score, per vendor": -0.202}
{"target gene": "Cox6b2 (cytochrome c oxidase subunit 6B2)", "siRNA no.": 4, "siRNA vendor or control pool": "qiagen single siRNA", "p65 translocation z-score, replicate mean": 0.0397, "p65 translocation z-score, replicate 1": -0.682, "p65 translocation z-score, replicate 2": 0.761, "gene median z-score, per vendor": 0.0738}
{"target gene": "Cox6b2 (cytochrome c oxidase subunit 6B2)", "siRNA no.": 5, "siRNA vendor or control pool": "qiagen single siRNA", "p65 translocation z-score, replicate mean": 0.0738, "p65 translocation z-score, replicate 1": 0.196, "p65 translocation z-score, replicate 2": -0.0488, "gene median z-score, per vendor": 0.0738}
{"target gene": "Cox6b2 (cytochrome c oxidase subunit 6B2)", "siRNA no.": 6, "siRNA vendor or control pool": "qiagen single siRNA", "gene median z-score, per vendor": 0.0738}
{"target gene": "Adra1a (adrenergic receptor, alpha 1a)", "siRNA no.": 1, "siRNA vendor or control pool": "ambion single siRNA", "p65 translocation z-score, replicate mean": 1.38, "p65 translocation z-score, replicate 1": 1.24, "p65 translocation z-score, replicate 2": 1.52, "gene median z-score, per vendor": 0.838}
{"target gene": "Adra1a (adrenergic receptor, alpha 1a)", "siRNA no.": 2, "siRNA vendor or control pool": "ambion single siRNA", "p65 translocation z-score, replicate mean": -1.7, "p65 translocation z-score, replicate 1": -2.18, "p65 translocation z-score, replicate 2": -1.22, "gene median z-score, per vendor": 0.838}
{"target gene": "Adra1a (adrenergic receptor, alpha 1a)", "siRNA no.": 3, "siRNA vendor or control pool": "ambion single siRNA", "p65 translocation z-score, replicate mean": 0.838, "p65 translocation z-score, replicate 1": 1.24, "p65 translocation z-score, replicate 2": 0.439, "gene median z-score, per vendor": 0.838}
{"target gene": "Adra1a (adrenergic receptor, alpha 1a)", "siRNA no.": 4, "siRNA vendor or control pool": "qiagen single siRNA", "p65 translocation z-score, replicate mean": 1.97, "p65 translocation z-score, replicate 1": 1.26, "p65 translocation z-score, replicate 2": 2.68, "gene median z-score, per vendor": -2.06}
{"target gene": "Adra1a (adrenergic receptor, alpha 1a)", "siRNA no.": 5, "siRNA vendor or control pool": "qiagen single siRNA", "p65 translocation z-score, replicate mean": "-2.29 (active)", "p65 translocation z-score, replicate 1": -1.95, "p65 translocation z-score, replicate 2": -2.62, "gene median z-score, per vendor": -2.06}
{"target gene": "Adra1a (adrenergic receptor, alpha 1a)", "siRNA no.": 6, "siRNA vendor or control pool": "qiagen single siRNA", "p65 translocation z-score, replicate mean": "-2.59 (active)", "p65 translocation z-score, replicate 1": -2.17, "p65 translocation z-score, replicate 2": -3.02, "gene median z-score, per vendor": -2.06}
{"target gene": "Large1 (LARGE xylosyl- and glucuronyltransferase 1)", "siRNA no.": 1, "siRNA vendor or control pool": "ambion single siRNA", "p65 translocation z-score, replicate mean": -1.17, "p65 translocation z-score, replicate 1": -1.83, "p65 translocation z-score, replicate 2": -0.503, "gene median z-score, per vendor": -0.88}
{"target gene": "Large1 (LARGE xylosyl- and glucuronyltransferase 1)", "siRNA no.": 2, "siRNA vendor or control pool": "ambion single siRNA", "p65 translocation z-score, replicate mean": -1.06, "p65 translocation z-score, replicate 1": -1.4, "p65 translocation z-score, replicate 2": -0.728, "gene median z-score, per vendor": -0.88}
{"target gene": "Large1 (LARGE xylosyl- and glucuronyltransferase 1)", "siRNA no.": 3, "siRNA vendor or control pool": "ambion single siRNA", "p65 translocation z-score, replicate mean": -0.784, "p65 translocation z-score, replicate 1": -1.03, "p65 translocation z-score, replicate 2": -0.535, "gene median z-score, per vendor": -0.88}
{"target gene": "Large1 (LARGE xylosyl- and glucuronyltransferase 1)", "siRNA no.": 4, "siRNA vendor or control pool": "qiagen single siRNA", "p65 translocation z-score, replicate mean": -1.27, "p65 translocation z-score, replicate 1": -3.28, "p65 translocation z-score, replicate 2": 0.739, "gene median z-score, per vendor": 0.739}
{"target gene": "Large1 (LARGE xylosyl- and glucuronyltransferase 1)", "siRNA no.": 5, "siRNA vendor or control pool": "qiagen single siRNA", "p65 translocation z-score, replicate mean": 0.76, "p65 translocation z-score, replicate 1": 0.551, "p65 translocation z-score, replicate 2": 0.968, "gene median z-score, per vendor": 0.739}
{"target gene": "Large1 (LARGE xylosyl- and glucuronyltransferase 1)", "siRNA no.": 6, "siRNA vendor or control pool": "qiagen single siRNA", "p65 translocation z-score, replicate mean": 1.69, "p65 translocation z-score, replicate 1": 1.69, "gene median z-score, per vendor": 0.739}
{"target gene": "Large2 (LARGE xylosyl- and glucuronyltransferase 2)", "siRNA no.": 1, "siRNA vendor or control pool": "ambion single siRNA", "p65 translocation z-score, replicate mean": -0.978, "p65 translocation z-score, replicate 1": -1.2, "p65 translocation z-score, replicate 2": -0.753, "gene median z-score, per vendor": -1.2}
{"target gene": "Large2 (LARGE xylosyl- and glucuronyltransferase 2)", "siRNA no.": 2, "siRNA vendor or control pool": "ambion single siRNA", "p65 translocation z-score, replicate mean": -1.07, "p65 translocation z-score, replicate 1": 1.33, "p65 translocation z-score, replicate 2": -3.47, "gene median z-score, per vendor": -1.2}
{"target gene": "Large2 (LARGE xylosyl- and glucuronyltransferase 2)", "siRNA no.": 3, "siRNA vendor or control pool": "ambion single siRNA", "p65 translocation z-score, replicate mean": "-3.28 (active)", "p65 translocation z-score, replicate 1": -3.28, "gene median z-score, per vendor": -1.2}
{"target gene": "Large2 (LARGE xylosyl- and glucuronyltransferase 2)", "siRNA no.": 4, "siRNA vendor or control pool": "qiagen single siRNA", "p65 translocation z-score, replicate mean": -0.882, "p65 translocation z-score, replicate 1": -1.49, "p65 translocation z-score, replicate 2": -0.277, "gene median z-score, per vendor": -0.153}
{"target gene": "Large2 (LARGE xylosyl- and glucuronyltransferase 2)", "siRNA no.": 5, "siRNA vendor or control pool": "qiagen single siRNA", "p65 translocation z-score, replicate mean": -0.865, "p65 translocation z-score, replicate 1": -1.7, "p65 translocation z-score, replicate 2": -0.0286, "gene median z-score, per vendor": -0.153}
{"target gene": "Large2 (LARGE xylosyl- and glucuronyltransferase 2)", "siRNA no.": 6, "siRNA vendor or control pool": "qiagen single siRNA", "p65 translocation z-score, replicate mean": 1.83, "p65 translocation z-score, replicate 1": 0.733, "p65 translocation z-score, replicate 2": 2.92, "gene median z-score, per vendor": -0.153}

Laid out differently: entries from further up.
| target gene | siRNA no. | siRNA vendor or control pool | p65 translocation z-score, replicate mean | p65 translocation z-score, replicate 1 | p65 translocation z-score, replicate 2 | gene median z-score, per vendor |
| --- | --- | --- | --- | --- | --- | --- |
| Cox6b2 (cytochrome c oxidase subunit 6B2) | 2 | ambion single siRNA | -2.51 (active) | -2.03 | -2.99 | -0.202 |
| Cox6b2 (cytochrome c oxidase subunit 6B2) | 3 | ambion single siRNA | -0.725 | 1.63 | -3.08 | -0.202 |
| Cox6b2 (cytochrome c oxidase subunit 6B2) | 4 | qiagen single siRNA | 0.0397 | -0.682 | 0.761 | 0.0738 |
